Measurements: PMC12002642

T1: Ppn1 (PPP1R10 ortholog), full-length, yeast two-hybrid fusion (S. japonicus) (UniProt B6K4E4)
T1 sequence: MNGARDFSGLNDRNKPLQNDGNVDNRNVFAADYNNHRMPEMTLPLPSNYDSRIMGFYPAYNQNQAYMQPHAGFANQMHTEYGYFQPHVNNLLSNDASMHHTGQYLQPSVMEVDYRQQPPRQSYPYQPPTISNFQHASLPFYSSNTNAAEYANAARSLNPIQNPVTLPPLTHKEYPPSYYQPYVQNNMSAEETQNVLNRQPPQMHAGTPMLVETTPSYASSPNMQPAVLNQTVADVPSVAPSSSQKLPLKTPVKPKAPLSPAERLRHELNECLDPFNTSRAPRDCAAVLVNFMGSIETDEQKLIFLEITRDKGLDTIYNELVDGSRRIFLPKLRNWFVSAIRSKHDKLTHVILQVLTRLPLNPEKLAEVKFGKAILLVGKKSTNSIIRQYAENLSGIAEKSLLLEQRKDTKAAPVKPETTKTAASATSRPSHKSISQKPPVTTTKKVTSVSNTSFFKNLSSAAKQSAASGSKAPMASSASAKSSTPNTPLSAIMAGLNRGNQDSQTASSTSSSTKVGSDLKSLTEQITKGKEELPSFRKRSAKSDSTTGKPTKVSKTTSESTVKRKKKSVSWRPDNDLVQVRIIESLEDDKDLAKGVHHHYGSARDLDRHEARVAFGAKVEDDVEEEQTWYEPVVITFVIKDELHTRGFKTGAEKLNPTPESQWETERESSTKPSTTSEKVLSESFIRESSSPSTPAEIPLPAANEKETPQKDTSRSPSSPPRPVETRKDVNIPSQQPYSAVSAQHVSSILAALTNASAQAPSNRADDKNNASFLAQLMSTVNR


target: Pab2 N-terminal domain (N), yeast two-hybrid fusion (S. japonicus); test: two-hybrid; pGBKT7 and pGADT7 plasmids co-transformed into S. cerevisiae AH109; growth on CM -Leu-Trp-His (medium interaction) and CM -Leu-Trp-His-Ade (strong interaction)

Row | binding | Molecule
1 | binds | Red5 (ZC3H3 ortholog), full-length, yeast two-hybrid fusion (protein, UniProt B6JVP1 1-380) MAGTNSEEQKLLEQIASLAGAINKYKYSQEQIHHQSAQKPDGANSTNWRKRKLSHWSTSRNQTLVNNPPPSPSIKGAAAKTQDDVSSMSEDATEASMFVARKDRHMQLIHKSIYEQDAQARQASMETARAKLNEKRKAVAEKKTQQKLTDPNNHLLTIQELPFIINDKDPKFIECMDTLAQLPKHIYHEGRAYVLMNRSMYKFVGTSPYSVYCRYYNMVGYCAKGGKCMYVHDPAHKYVCPRFLSGNCPNGEQCSLSHDRDEKRTPACRYFLKGKCTNPVCRYAHVHYNESVPVCPDFSEYGMCENGLHCKMKHILKCTEYALKGACHNAKCRLYHPPKELESTEKKEGAVSAEKMQGEQKQDSESSSTASGATPIFISL
2 | binds | Rmn1 (RBM26·27 ortholog), full-length, yeast two-hybrid fusion (protein, UniProt B6K5G4 1-589) MALLRHESAEEEVRQLCYSQLEDFLRQETIPFVDKVFDVLKERSYLEKEMKSPKGHLSTAATIPVSAPLAEKGPVAASNERPNAANAQANAPPFGGHQHPTLPAGFMPNPSGPPFPFPLPMLNPAAAAAAAAAAAAAAASGEFSPFQGSNNSSQASPMDIASPASPFPPPFQPRGSRRRCRDYETKGFCLRGDKCMFEHSSQPVRVSSPNHQNFAYDHRAPSRPIQHYSPRYIKGPSRDPSSTILQMRNVPPEYLDEQRIREFFEKFGPLEKVELHQTQSYAILHFKDHASAEAAWGSPEPIFNNRFIKVFWQATNTPSRGPPGQRRMTSSRVSHYTPYSRPQPRGEVVQEEDPVVTAQSPDFLKRVEEKQRAFEERRKKLEENKRKLEEINRKKQELALRQLKEQQVLMEKLKSADPASQSKVDILKTQLALLKAEADSLGIQVGSQNSPTPSTTTATSKPTVSYSHHPNASVGYSHAPARGRGGRFSFASMSLDNRPRRIQVNNVSPDKNELLLQHLLSVGEYESVTEPEPNTRMVNFRSRRAAEQFYDNVQTIDGLRDISLQWIPNGVAATQPSENQTDATMGNES

target: T1, Ppn1 (PPP1R10 ortholog), full-length, yeast two-hybrid fusion (S. japonicus); test: as above

Row | binding | Molecule
3 | no binding | Pab2 RNA recognition motif (RRM) fragment, yeast two-hybrid fusion (S. japonicus) (domain or fragment)
4 | no binding | Pab2ΔRRM (Pab2 lacking the RNA recognition motif), yeast two-hybrid fusion (S. japonicus) (domain or fragment)
5 | no binding | Pab2ΔN (Pab2 lacking the N-terminal domain), yeast two-hybrid fusion (S. japonicus) (domain or fragment)
6 | no binding | Pab2 N-terminal domain (N), yeast two-hybrid fusion (S. japonicus) (domain or fragment)

Results are given in words; binding and its absence hold for the method and conditions named. For part of these data: Binding calls can cover weak binding; strength is not graded here. Tags and fused reporters may be left off the sequences shown.
